In all, about 33,000 sequences were measured (“E-score (-0.5 to 0.5)”: median about -8e-05, highest 2% from about 0.23 on). The list shows a part of the results.
Each sequence was assayed against T1, Nrg2 (UniProt P38082) (assay: PBM E-score (8-mer binding enrichment) (E-score (-0.5 to 0.5)); higher = stronger / more preferred TF binding). Settings: protein concentration: 100 nM; construct: GST-full length.
T1 sequence: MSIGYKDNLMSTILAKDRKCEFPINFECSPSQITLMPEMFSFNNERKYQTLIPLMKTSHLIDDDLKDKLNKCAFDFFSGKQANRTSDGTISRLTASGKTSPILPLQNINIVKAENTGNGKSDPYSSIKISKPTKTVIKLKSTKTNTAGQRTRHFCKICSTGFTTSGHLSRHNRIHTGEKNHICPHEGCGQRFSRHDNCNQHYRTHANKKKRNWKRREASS
Summary of the method: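 Each ungapped eight-base word and its reverse complement, pooled, received an E-score from the Universal PBM Analysis Suite. Underlying scans, normalised with masliner, recorded fluorescent anti-GST bound to GST-tagged yeast transcription factors. These were applied at about 100-200 nM to universal all-10-mer Agilent arrays double-stranded by primer extension.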

Sequence | PBM E-score
GTTGCAGA | 0.0197
TCCCTTAA | 0.106
TAGGTATA | 0.121
CCGTATTA | 0.047
GAATGGAC | 0.0299
AAATATGC | 0.0185
CCAACCGC | 0.159
AAATCCCA | -0.0938
TCCGCCCA | -0.0972
GGTGGCTA | -0.0197
ATAAGCCG | -0.0617
GCGTTCAA | -0.04
CTTAAATC | -0.0502
TCAAGTAA | -0.0497
CTCGTTCA | 0.0156
TGGCAAAA | 0.0813
CCTAAAAA | -0.00277
ATCCCAGG | -0.0419
CCAGTTAC | -0.146
ACGAAGTG | 0.064
ACCAGACT | -0.148
ACAATTAT | -0.00765
ATTTGTGG | 0.204
ATCAACTG | 0.086
ACAGCCTA | 0.133

Sequence | PBM E-score
GCCGTTAA | 0.0444
AAGAGGTC | 0.0167
CTTTGCAC | 0.00168
ACATAGCG | -0.0626
GCATCCTA | -0.0981
CAGGAGAC | 0.0108
CCCCTATC | 0.0154
AGTCCGTA | -0.156
GAAGAGCC | -0.103
ATATAGTG | 0.241
ACTCGCAC | -0.0805
ACCGCACG | -0.00283
AATGTTCC | 0.0459
GTTCACTA | -0.0719
CAATTGCG | 0.133
CCCGTCGG | -0.16
GCCCCAAC | 0.126
AGGTCATC | -0.1
GAAGAGCA | -0.175
ACGCGCAC | -0.0011
CTTGCTTA | -0.0295
CCACGCAA | -0.0726
CAAGAGCA | -0.0163
ATCCACCA | -0.122
GAAAAGGC | -0.168

Sequence | PBM E-score
ATATGCCA | 0.137
AACCCGGT | -0.00724
TACACCGA | -0.14
TCAACAAA | 0.118
GTGCCTGA | -0.18
AACACATA | 0.113
ACACGGTA | 0.00247
ACAACGGT | -0.0246
TAGCTGCA | -0.131
ATATGGGC | 0.129
AAACGATG | 0.0505
CCACCGAC | 0.0138
AATCCTGC | -0.00651
AAAGAGAT | -0.0209
TACAGATA | 0.0235
AGAATGAA | 0.126
AGACGGTA | 0.00245
TCGGCTAA | 0.028
TAGTTGGA | 0.0485
AACCCGTT | 0.00318
GCTCAGAC | -0.0262
CACCCAGC | -0.224
ACTCGAGT | 0.132
AAAACGGG | 0.17
AGGCAGCC | -0.0143

Sequence | PBM E-score
AATTGGGG | -0.0654
GAAGCTCA | -0.0105
CGCCTCCC | -0.353
ACTACAGG | 0.237
CAGAGGGC | -0.201
ACTCGGAC | 0.0898
CTACCAGC | -0.165
ATGACGAA | 0.0839
ACTAAGCT | -0.0663
CACCACCG | -0.145
AGACTGCC | -0.0787
AGCCAGTC | -0.183
CCGTGGGC | -0.114
AGAAGCGG | -0.182
AGTATGAA | 0.254
AGTTTGAG | 0.0901
GCAGTCGC | -0.0122
GGCCGTGA | 0.0393
ATAGGGGA | 0.0531
GACGTTGC | 0.00555
ATATGCGC | 0.209
ATATCATA | 0.174
ATGAGGCA | 0.00433
CATCCAAC | 0.0443
CTTATAGC | -0.0991

Sequence | PBM E-score
AGGTACCC | -0.0334
AAGTCCCC | -0.117
CTATGAGC | -0.246
CATAGTAG | 0.208
AAGTACGG | -0.0568
TAGCTAGA | -0.0761
GAGGGTGA | -0.0277
AACCCGGG | 0.255
GAACAACC | 0.157
CACGACTC | -0.0132
AATGCCGC | 0.096
CGGCACCG | -0.00089
CAAACTTG | 0.00038
ATTGTAAG | -0.226
CAATGCTC | -0.127
AACTGGCG | 0.0501
AAGGTAAT | 0.0937
CTACCTAG | -0.0659
CGAGGGAC | -0.0161
GATGTCGA | 0.0615
CTAAGCCC | -0.219
TAGGAGCA | -0.0909
AGTTTGCG | 0.0795
AATATTTC | 0.21
CGATCGTA | 0.0872

An excerpt of the results above, for reference:
Sequence | PBM E-score
ATTGTAAG | -0.226
CAATGCTC | -0.127
AACTGGCG | 0.0501
AAGGTAAT | 0.0937

More records.

Sequence | PBM E-score
AAGAATGG | 0.0626
CTGCCCTA | -0.0551
ACCCTGTG | 0.289
CCCGGTTA | -0.197
ATACTCCA | 0.111
GCAGCCAC | 0.00093
CGAACTCA | 0.00924
CGGCCGCA | 0.0157
AAACCAGT | -0.0961
CAATCTCA | -0.042
AAACGCGT | 0.0519
GCGGTTCC | -0.173
AACTCCAT | 0.114
GATTCTAC | -0.0847
GTGATTAA | 0.0746
AAAAGTCG | 0.0204
ACGGAATC | 0.0288
TCGAGAGA | -0.0129
GCACGACA | -0.0487
CGGATACA | 0.00321
AATTGACG | -0.0643
CCTTAACC | -0.104
CCAGAGCA | 0.113
CATGGCCA | -0.042
GATTAGGC | 0.0901

Sequence | PBM E-score
ACGATTAC | -0.0875
CAGTACCA | -0.0964
AGATCCTG | -0.0865
CAGTGGAA | -0.0633
GTTACGCA | 0.00206
CCGCATCA | -0.0093
ATGACACA | 0.147
AATTGATA | 0.193
CTTCCTCA | 0.0492
CCCCTCTC | -0.259
ATGATCGC | -0.0116
AGCGGGAA | 0.117
GATACCGC | 0.126
ATCATGTA | 0.0207
ATTCGTAA | 0.0546
CGAGACCA | 0.0493
CGTCACAA | 0.0516
CAGTTAGA | -0.102
AAGAACTC | 0.0776
GCCTGAGA | -0.0991
GCAAGCAC | -0.269
TATACACA | 0.128
